Experimental data published in the supplement of paper PMC10849652.
Some of the results follow.

Amino acid sequences for entries named in this document (tags omitted). A change or cut given only in a name is not applied to a line headed by its entry.
UniProt Q5TC82: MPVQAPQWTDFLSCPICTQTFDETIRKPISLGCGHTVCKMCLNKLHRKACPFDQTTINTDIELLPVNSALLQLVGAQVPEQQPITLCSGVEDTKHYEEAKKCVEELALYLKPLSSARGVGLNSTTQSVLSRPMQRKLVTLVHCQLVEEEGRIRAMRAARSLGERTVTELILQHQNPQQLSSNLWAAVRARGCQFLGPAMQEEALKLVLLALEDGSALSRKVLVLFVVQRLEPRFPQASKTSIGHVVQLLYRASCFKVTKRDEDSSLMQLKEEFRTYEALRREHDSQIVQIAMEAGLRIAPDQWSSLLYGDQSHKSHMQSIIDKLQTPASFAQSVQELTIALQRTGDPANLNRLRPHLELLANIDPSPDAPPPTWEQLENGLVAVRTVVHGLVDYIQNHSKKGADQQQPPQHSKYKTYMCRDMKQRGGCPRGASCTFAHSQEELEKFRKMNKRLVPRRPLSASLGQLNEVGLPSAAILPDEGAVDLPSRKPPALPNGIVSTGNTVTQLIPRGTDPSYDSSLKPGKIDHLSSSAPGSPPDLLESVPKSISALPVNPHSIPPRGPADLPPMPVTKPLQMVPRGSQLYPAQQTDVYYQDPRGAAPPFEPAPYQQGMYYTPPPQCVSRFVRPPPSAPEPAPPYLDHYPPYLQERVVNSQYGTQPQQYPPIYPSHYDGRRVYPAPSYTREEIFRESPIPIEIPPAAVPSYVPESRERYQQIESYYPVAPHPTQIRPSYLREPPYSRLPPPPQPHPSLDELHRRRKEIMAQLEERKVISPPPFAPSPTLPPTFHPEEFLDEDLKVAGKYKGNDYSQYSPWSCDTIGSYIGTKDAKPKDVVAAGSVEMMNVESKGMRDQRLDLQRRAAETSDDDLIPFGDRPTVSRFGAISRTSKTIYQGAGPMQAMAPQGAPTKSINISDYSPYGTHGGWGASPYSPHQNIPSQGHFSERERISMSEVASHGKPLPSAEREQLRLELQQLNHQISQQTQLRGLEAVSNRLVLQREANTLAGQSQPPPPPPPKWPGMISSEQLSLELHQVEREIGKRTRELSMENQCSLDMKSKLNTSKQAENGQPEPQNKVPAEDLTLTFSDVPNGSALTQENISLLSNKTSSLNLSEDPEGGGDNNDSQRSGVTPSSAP
UniProt Q9P2N5: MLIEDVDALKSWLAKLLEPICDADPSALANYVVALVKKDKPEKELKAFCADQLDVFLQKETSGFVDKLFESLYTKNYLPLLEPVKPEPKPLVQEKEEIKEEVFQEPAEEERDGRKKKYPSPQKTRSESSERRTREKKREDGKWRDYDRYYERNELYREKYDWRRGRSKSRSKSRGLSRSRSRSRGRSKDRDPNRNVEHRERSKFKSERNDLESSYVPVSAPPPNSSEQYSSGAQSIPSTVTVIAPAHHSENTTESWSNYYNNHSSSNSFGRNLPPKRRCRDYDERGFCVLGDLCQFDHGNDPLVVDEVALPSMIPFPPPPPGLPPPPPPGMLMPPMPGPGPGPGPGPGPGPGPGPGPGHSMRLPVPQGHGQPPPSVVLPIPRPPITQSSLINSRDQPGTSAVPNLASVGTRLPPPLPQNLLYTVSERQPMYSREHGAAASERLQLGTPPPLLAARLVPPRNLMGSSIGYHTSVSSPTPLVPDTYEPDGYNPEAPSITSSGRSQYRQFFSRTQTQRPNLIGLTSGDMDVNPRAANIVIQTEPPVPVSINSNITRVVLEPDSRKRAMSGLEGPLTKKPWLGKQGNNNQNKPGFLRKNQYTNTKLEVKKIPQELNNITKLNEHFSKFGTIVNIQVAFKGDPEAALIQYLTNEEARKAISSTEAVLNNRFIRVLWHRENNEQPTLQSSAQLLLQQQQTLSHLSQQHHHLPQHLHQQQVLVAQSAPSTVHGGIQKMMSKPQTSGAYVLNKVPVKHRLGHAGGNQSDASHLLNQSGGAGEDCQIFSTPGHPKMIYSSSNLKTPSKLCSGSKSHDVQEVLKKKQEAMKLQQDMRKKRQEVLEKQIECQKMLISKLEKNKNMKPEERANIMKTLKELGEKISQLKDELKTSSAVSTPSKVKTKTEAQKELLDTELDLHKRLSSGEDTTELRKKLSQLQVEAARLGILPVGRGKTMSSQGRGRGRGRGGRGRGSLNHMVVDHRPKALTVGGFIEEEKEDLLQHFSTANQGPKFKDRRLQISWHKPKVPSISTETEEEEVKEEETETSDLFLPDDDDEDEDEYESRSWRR
UniProt Q9Y256: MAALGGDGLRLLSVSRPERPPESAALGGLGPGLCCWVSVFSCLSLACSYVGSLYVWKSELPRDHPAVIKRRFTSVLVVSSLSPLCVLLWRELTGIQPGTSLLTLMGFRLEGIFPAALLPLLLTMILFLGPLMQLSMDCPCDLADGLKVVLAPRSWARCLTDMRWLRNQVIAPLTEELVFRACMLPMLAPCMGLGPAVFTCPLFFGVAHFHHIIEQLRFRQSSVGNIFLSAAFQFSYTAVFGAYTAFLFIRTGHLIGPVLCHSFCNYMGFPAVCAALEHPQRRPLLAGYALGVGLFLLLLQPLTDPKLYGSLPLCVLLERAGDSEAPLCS
UniProt Q8WWW0: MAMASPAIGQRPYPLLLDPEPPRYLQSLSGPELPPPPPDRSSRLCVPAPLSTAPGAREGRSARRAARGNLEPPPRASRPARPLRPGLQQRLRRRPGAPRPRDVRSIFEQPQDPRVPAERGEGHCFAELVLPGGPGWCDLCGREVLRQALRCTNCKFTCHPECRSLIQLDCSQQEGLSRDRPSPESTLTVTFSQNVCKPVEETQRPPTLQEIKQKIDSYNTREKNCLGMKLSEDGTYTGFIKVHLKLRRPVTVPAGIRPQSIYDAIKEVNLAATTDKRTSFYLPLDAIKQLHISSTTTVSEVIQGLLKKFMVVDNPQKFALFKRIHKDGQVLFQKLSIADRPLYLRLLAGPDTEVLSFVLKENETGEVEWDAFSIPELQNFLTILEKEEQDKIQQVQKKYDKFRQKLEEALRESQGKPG
UniProt Q9BWE0: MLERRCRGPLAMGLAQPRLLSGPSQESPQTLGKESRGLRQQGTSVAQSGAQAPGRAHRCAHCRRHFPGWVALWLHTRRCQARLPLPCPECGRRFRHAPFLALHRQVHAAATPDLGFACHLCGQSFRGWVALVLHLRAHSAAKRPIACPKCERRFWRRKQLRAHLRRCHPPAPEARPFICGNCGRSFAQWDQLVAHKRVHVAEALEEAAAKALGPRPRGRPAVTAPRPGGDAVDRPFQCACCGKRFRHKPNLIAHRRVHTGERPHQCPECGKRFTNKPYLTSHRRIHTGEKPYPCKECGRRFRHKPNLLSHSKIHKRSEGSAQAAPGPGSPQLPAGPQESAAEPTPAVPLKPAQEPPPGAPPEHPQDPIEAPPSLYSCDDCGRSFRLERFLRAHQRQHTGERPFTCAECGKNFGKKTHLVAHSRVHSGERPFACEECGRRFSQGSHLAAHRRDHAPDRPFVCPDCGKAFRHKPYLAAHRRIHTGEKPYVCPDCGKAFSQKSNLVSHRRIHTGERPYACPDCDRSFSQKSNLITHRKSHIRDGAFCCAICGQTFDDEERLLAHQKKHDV
UniProt P35241, whole entry, looked up: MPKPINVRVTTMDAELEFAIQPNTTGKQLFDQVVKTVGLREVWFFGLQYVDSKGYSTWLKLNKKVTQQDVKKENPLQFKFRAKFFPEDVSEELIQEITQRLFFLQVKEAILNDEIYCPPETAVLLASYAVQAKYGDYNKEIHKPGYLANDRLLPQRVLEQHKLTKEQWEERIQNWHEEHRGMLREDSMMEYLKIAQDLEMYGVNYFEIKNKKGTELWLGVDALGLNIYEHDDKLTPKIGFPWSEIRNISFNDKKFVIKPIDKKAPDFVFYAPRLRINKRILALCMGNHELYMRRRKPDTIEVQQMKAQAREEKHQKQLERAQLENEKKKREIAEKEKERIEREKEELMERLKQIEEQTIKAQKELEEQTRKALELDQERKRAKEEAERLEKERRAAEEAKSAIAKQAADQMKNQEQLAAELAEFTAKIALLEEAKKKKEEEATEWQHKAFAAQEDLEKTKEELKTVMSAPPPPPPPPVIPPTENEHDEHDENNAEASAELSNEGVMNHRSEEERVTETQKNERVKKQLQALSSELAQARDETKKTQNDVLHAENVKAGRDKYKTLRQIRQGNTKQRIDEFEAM
UniProt Q9GZR2: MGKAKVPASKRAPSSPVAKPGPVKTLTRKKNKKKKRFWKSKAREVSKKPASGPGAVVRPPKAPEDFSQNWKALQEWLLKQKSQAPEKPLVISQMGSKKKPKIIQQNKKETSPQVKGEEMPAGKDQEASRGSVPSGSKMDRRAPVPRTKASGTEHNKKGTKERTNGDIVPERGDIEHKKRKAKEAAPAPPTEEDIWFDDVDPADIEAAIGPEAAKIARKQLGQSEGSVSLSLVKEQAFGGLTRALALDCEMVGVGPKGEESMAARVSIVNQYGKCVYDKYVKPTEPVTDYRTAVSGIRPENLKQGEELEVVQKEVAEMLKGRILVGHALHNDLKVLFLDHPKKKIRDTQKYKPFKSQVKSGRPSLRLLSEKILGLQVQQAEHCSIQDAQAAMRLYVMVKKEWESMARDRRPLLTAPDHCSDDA
UniProt P35249, whole entry, looked up: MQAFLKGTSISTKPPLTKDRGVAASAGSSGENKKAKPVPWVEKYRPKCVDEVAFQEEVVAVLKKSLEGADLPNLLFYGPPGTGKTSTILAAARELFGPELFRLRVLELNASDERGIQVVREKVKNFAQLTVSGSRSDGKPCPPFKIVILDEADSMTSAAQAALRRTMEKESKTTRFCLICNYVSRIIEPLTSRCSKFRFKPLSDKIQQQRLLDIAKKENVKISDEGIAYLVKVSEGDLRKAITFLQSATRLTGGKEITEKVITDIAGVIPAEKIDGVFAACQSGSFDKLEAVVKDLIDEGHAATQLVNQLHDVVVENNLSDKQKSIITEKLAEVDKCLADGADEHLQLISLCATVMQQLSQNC
UniProt Q04864: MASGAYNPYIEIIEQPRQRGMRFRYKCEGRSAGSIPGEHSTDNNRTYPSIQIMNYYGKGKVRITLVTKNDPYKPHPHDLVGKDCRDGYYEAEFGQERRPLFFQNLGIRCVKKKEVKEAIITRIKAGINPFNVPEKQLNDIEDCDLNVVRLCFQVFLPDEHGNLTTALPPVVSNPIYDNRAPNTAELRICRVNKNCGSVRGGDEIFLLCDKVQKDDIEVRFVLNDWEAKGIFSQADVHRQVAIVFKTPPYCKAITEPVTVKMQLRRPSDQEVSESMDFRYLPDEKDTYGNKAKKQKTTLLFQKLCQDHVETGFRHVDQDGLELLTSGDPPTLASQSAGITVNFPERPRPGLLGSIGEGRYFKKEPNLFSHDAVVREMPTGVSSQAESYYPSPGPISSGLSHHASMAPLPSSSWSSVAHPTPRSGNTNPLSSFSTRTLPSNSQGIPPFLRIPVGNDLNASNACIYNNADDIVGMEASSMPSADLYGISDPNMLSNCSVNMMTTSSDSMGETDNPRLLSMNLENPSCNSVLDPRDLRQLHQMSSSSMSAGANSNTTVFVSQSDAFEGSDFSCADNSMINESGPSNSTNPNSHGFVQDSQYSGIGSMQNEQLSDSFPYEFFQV
UniProt O94762: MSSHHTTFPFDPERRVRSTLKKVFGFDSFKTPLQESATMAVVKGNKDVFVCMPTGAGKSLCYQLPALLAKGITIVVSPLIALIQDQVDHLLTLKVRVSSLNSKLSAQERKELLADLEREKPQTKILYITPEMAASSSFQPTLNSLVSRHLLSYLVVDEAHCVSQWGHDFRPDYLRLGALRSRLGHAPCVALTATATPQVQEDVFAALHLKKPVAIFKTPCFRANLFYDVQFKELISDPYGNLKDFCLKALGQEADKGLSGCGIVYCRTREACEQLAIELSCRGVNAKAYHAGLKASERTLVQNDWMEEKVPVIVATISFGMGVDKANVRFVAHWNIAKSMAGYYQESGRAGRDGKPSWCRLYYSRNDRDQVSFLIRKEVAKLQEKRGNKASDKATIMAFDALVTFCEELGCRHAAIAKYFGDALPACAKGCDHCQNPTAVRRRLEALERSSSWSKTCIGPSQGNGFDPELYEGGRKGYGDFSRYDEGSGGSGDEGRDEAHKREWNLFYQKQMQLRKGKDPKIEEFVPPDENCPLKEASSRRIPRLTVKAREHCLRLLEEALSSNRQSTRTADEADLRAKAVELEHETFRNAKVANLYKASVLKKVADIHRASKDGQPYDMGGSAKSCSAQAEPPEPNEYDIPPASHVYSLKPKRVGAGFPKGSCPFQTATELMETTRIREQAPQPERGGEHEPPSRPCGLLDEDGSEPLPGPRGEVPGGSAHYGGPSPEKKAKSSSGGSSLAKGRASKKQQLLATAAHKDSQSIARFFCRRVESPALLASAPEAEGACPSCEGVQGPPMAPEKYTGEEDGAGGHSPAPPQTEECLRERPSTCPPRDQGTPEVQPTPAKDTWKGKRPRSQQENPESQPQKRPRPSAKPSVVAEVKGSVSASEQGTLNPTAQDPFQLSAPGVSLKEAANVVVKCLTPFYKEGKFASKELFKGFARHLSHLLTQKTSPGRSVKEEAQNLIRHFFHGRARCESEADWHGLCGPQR

Columns and labels:
Experiment in all cases: log2 fold change, soluble protein after heating vs DMSO (PISA); higher = thermal stabilisation; K562 lysate, 10 uM; active = over 0.2 and 3.5 SD of the protein, either way, in both replicates (recomputed)
ibrutinib = compound: C=CC(=O)N1CCC[C@@H](n2nc(-c3ccc(Oc4ccccc4)cc3)c3c(N)ncnc32)C1 [ibrutinib]
Procedure, shortened: (§1)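 K562 pellets were dounce-homogenised in PBS pH 7.4 with 1 mM MgCl2, and the crude extract at 1 mg/mL protein was treated with 10 μM compound for 30 min. Aliquots were heated for 3 min across 48°C-58°C, pooled, and brought to 0.5% NP-40 at 4°C; soluble protein was the supernatant after 21,000xg for 90 min. Soluble protein was quantified by TMTpro 16plex LC-MS/MS with channel sums equalised, and reported as log2 fold change in thermal stability against DMSO controls, with values from duplicates.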

[1] = compound: CC(=O)c1cnc2ccc(-c3cc(Cl)c(O)c(Cl)c3)nc2c1N[C@H]1CC[C@H](CN(C)C)CC1
Procedure, shortened: as §1

ralimetinib = compound: CC(C)(C)Cn1c(N)nc2ccc(-c3[nH]c(C(C)(C)C)nc3-c3ccc(F)cc3)nc21 [ralimetinib]
Procedure, shortened: as §1

[2] = compound: CC(C)(O)CC(=O)NCCn1ccc2ncnc(Nc3ccc(Oc4cccc(C(F)(F)F)c4)c(Cl)c3)c21
Procedure, shortened: as §1

[3] = compound: CC(C)C1=C2N=C(C=C(N2N=C1)NCC3=CC=CC=C3)NCCCCCCN
Procedure, shortened: as §1

[4] = compound: CC1=C(C(CC(=O)N1)C2=CC=C(C=C2)C(F)(F)F)C(=O)NC3=C(C=C4C(=C3)C=NN4)F
Procedure, shortened: as §1

[5] = compound: CC1=C(C2=C(C=C1)C(=O)C3=CC=CC=C3N2CCCN)C
Procedure, shortened: as §1

[6] = compound: CC1=C(C=C(C=C1)NC(=O)C2=CC(=CC=C2)C(C)(C)C#N)NC3=CC4=C(C=C3)N=CN(C4=O)C
Procedure, shortened: as §1

[7] = compound: CC1=C(C=C(C=C1)NC(=O)C2=CC(=CC=C2)N(C)C)NC(=O)C3=CC=C(C=C3)O
Procedure, shortened: as §1

[8] = compound: CC1=CC=C(C=C1)SC2=C3C=C(SC3=CN=C2)C(=O)N
Procedure, shortened: as §1

Measured: log2 fold change

RBM34 (UniProt P42696)
inactive: ibrutinib -0.038 | [1] -0.022 | ralimetinib -0.015 | [2] 0.022 | [3] 0.006 | [4] -0.011 | [5] -0.027 | [6] 0.034 | [7] 0.043 | [8] -0.01

RARS (UniProt P54136)
inactive: ibrutinib -0.001 | [1] -0.003 | ralimetinib 0.062 | [2] 0.048 | [3] 0.033 | [4] -0.019 | [5] 0.015 | [6] -0.003 | [7] 0.06 | [8] 0.033

REXO2 (UniProt Q9Y3B8)
inactive: ibrutinib 0.05 | [1] 0.019 | ralimetinib -0.022 | [2] 0.014 | [3] 0.001 | [4] -0.006 | [5] 0.024 | [6] -0.018 | [7] -0.021 | [8] 0.008

RBM26 isoform 3 (UniProt Q5T8P6)
inactive: ibrutinib 0.073 | [1] 0.034 | ralimetinib 0.177 | [2] 0.047 | [3] 0.083 | [4] -0.01 | [5] 0.074 | [6] 0.028 | [7] -0.011 | [8] 0.011

RC3H1 (UniProt Q5TC82)
inactive: ibrutinib 0.057 | [1] -0.107 | ralimetinib 0.067 | [2] -0.042 | [3] -0.028 | [4] -0.071 | [5] 0.074 | [6] -0.037 | [7] 0.026 | [8] 0.06

RASA2 (UniProt Q15283)
inactive: ibrutinib 0.034 | [1] -0.011 | ralimetinib 0.006 | [2] -0.038 | [3] 0.014 | [4] 0.023 | [5] 0.004 | [6] 0.033 | [7] 0.019 | [8] -0.013

RBM27 (UniProt Q9P2N5)
inactive: ibrutinib 0.054 | [1] 0.001 | ralimetinib 0.019 | [2] -0.012 | [3] 0.029 | [4] 0.006 | [5] 0.015 | [6] -0.037 | [7] 0.021 | [8] 0.02

RCE1 (UniProt Q9Y256)
inactive: ibrutinib -0.05 | [1] 0.189 | ralimetinib 0.084 | [2] -0.21 | [3] -0.056 | [4] 0.269 | [5] -0.341 | [6] 0.05 | [7] -0.027 | [8] -0.011

RASA1 (UniProt P20936)
inactive: ibrutinib -0.009 | [1] -0.012 | ralimetinib 0.025 | [2] -0.034 | [3] -0.002 | [4] 0.008 | [5] 0.01 | [6] -0.013 | [7] 0.017 | [8] -0.006

RER1 (UniProt O15258)
inactive: ibrutinib -0.014 | [1] 0.022 | ralimetinib 0.032 | [2] -0.005 | [3] -0.015 | [4] 0.013 | [5] -0.012 | [6] -0.007 | [7] -0.008 | [8] 0.023

RFC3 (UniProt P40938)
inactive: ibrutinib 0.024 | [1] 0.131 | ralimetinib 0.03 | [2] -0.012 | [3] -0.04 | [4] 0.004 | [5] -0.034 | [6] 0.002 | [7] 0.042 | [8] -0.008

RASSF5 (UniProt Q8WWW0)
inactive: ibrutinib 0.011 | [1] 0.117 | ralimetinib -0.032 | [2] -0.045 | [3] -0.012 | [4] -0.03 | [5] -0.021 | [6] 0.002 | [7] -0.072 | [8] -0.019

REPIN1 isoform 4 (UniProt Q9BWE0)
inactive: ibrutinib 0.018 | [1] -0.033 | ralimetinib 0.042 | [2] -0.058 | [3] 0.053 | [4] -0.011 | [5] -0.048 | [6] -0.02 | [7] 0.027 | [8] 0.041

2 entries picked at random from the list so far:
RASA2 (UniProt Q15283)
inactive: ibrutinib 0.034 | [1] -0.011 | ralimetinib 0.006 | [2] -0.038 | [3] 0.014 | [4] 0.023 | [5] 0.004 | [6] 0.033 | [7] 0.019 | [8] -0.013

RBM26 isoform 3 (UniProt Q5T8P6)
inactive: ibrutinib 0.073 | [1] 0.034 | ralimetinib 0.177 | [2] 0.047 | [3] 0.083 | [4] -0.01 | [5] 0.074 | [6] 0.028 | [7] -0.011 | [8] 0.011

More records:

RELCH isoform 2 (UniProt Q9P260)
inactive: ibrutinib -0.001 | [1] 0.011 | ralimetinib 0.016 | [2] -0.054 | [3] -0.039 | [4] 0.041 | [5] -0.057 | [6] 0.004 | [7] 0.011 | [8] 0.054

RCC1 isoform 2 (UniProt P18754)
inactive: ibrutinib -0.008 | [1] 0.012 | ralimetinib 0.041 | [2] 0.019 | [3] 0.015 | [4] -0.048 | [5] -0.037 | [6] -0.01 | [7] 0.036 | [8] 0.01

RBCK1 (UniProt Q9BYM8)
inactive: ibrutinib -0.017 | [1] 0.023 | ralimetinib 0.055 | [2] -0.004 | [3] -0.035 | [4] 0.037 | [5] -0.008 | [6] 0.028 | [7] 0 | [8] 0.019

RDX (UniProt P35241)
inactive: ibrutinib -0.051 | [1] 0 | ralimetinib -0.003 | [2] 0.002 | [3] 0.012 | [4] -0.016 | [5] -0.011 | [6] -0.021 | [7] -0.002 | [8] -0.004

RFXAP (UniProt O00287)
inactive: ibrutinib 0.083 | [1] -0.037 | ralimetinib 0.049 | [2] -0.003 | [3] -0.036 | [4] 0.021 | [5] -0.031 | [6] 0.049 | [7] 0.013 | [8] -0.028

RETREG3 (UniProt Q86VR2)
inactive: ibrutinib -0.006 | [1] -0.025 | ralimetinib -0.039 | [2] -0.058 | [3] 0.054 | [4] 0.068 | [5] -0.059 | [6] 0.097 | [7] 0.085 | [8] -0.043

RDH10 (UniProt Q8IZV5)
inactive: ibrutinib 0.016 | [1] -0.015 | ralimetinib 0.04 | [2] -0.013 | [3] 0.03 | [4] -0.007 | [5] -0.033 | [6] -0.045 | [7] -0.034 | [8] -0.016

RCOR3 isoform 3 (UniProt Q9P2K3)
inactive: ibrutinib -0.009 | [1] -0.03 | ralimetinib 0.014 | [2] -0.004 | [3] 0.011 | [4] 0 | [5] 0.002 | [6] -0.038 | [7] 0.002 | [8] -0.011

REXO4 (UniProt Q9GZR2)
inactive: ibrutinib 0.014 | [1] 0.027 | ralimetinib 0.021 | [2] 0.074 | [3] -0.024 | [4] 0.023 | [5] -0.053 | [6] -0.043 | [7] 0.056 | [8] 0.008

RFC4 (UniProt P35249)
inactive: ibrutinib -0.01 | [1] -0.008 | ralimetinib -0.01 | [2] -0.015 | [3] 0.032 | [4] 0 | [5] 0.026 | [6] -0.001 | [7] 0.002 | [8] 0.019

REEP4 (UniProt Q9H6H4)
inactive: ibrutinib -0.043 | [1] -0.015 | ralimetinib 0.021 | [2] -0.102 | [3] 0.003 | [4] 0.133 | [5] 0.033 | [6] -0.011 | [7] 0.013 | [8] 0

RGPD5 (UniProt Q99666)
inactive: ibrutinib 0.01 | [1] 0.065 | ralimetinib -0.001 | [2] -0.01 | [3] 0.077 | [4] -0.018 | [5] -0.018 | [6] -0.009 | [7] -0.009 | [8] 0.008

REL isoform 2 (UniProt Q04864)
inactive: ibrutinib 0.032 | [1] 0.015 | ralimetinib 0.06 | [2] -0.003 | [3] 0.005 | [4] -0.018 | [5] 0.038 | [6] 0.022 | [7] -0.023 | [8] 0.049

RFC1 (UniProt P35251)
inactive: ibrutinib 0.144 | [1] 0.002 | ralimetinib 0.082 | [2] -0.012 | [3] 0.055 | [4] 0.005 | [5] -0.021 | [6] 0.067 | [7] 0.021 | [8] 0.024

RCCD1 (UniProt A6NED2)
inactive: ibrutinib 0.016 | [1] 0.014 | ralimetinib 0.014 | [2] -0.018 | [3] -0.012 | [4] 0.035 | [5] 0.015 | [6] 0.024 | [7] 0.033 | [8] -0.002

RBM25 (UniProt P49756)
inactive: ibrutinib 0.062 | [1] 0.023 | ralimetinib -0.021 | [2] -0.062 | [3] -0.021 | [4] -0.006 | [5] 0.002 | [6] -0.031 | [7] -0.008 | [8] -0.012

RECQL5 (UniProt O94762)
inactive: ibrutinib 0.014 | [1] -0.335 | ralimetinib 0.035 | [2] -0.015 | [3] 0.055 | [4] 0.03 | [5] -0.066 | [6] -0.044 | [7] 0.035 | [8] -0.001
